Data taken from PMC7332104.
No constants are given. Whether binding was seen depends on the method and setting. Binding seen in cells or lysates may run through a third protein. Some results given as binding are weak or reduced against the parent protein; the word gives no strength. Sequences can lack the tags named with a protein.

Biological target: T1, Orc1-TAP (budding yeast) (UniProt P54784)
T1 sequence: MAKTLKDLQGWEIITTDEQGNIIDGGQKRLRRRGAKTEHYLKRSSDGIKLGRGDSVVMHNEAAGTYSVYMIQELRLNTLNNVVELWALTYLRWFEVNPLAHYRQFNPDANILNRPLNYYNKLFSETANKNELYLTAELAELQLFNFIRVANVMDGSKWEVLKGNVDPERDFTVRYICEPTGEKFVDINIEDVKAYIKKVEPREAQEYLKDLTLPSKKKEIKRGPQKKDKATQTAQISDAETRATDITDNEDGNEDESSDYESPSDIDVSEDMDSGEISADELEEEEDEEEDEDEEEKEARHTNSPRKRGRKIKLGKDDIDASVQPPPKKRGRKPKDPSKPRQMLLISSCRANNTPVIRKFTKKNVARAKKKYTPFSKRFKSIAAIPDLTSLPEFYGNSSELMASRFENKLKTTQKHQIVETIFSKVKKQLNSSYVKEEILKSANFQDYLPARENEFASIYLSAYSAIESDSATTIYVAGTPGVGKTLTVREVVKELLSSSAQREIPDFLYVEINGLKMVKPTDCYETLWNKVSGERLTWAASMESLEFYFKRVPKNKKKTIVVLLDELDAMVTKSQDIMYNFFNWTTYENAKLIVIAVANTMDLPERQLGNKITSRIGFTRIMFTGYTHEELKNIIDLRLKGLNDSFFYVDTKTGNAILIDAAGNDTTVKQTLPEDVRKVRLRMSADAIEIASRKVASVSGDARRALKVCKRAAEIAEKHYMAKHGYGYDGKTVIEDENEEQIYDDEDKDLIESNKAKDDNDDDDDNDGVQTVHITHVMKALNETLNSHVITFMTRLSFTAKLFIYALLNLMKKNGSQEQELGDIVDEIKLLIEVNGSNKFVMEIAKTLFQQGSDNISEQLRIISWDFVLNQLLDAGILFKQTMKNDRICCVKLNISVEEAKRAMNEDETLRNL
Assay: co-IP; lysates of meiotic (SPO) cultures, chromatin sheared by sonication; lysis buffer 50mM Tris-HCl pH 7.4, 150mM NaCl, 1% Triton X-100, 1mM EDTA; immunoprecipitated with α-TAP antibodies on magnetic beads; Western blot

binding: binds
B1: 3xFLAG-Pch2 (NH2-terminal 3xFLAG-tagged wild type version of Pch2) (enzyme, UniProt P38126 1-564)
chain: MSYIVDLQVRGSSLRVIKCMFREDEQISSLHSGSDSKQNSNKKLGEFLNLLKAVVKRKLESFPKDRLKTSIITGQELMREGQGSIEIKDPPTEAQQHLIRSLAKVLLHQFSSINGKVNTVNEGQDNLFLSLFVKKISIEQQSTSHVSIKLNFHEKINLGQHIDSILDSEETNESDTYHMGSVDEFIIYPFCCLEEQDELKNGSILSTEFDKIDLELDEDDGFEGETLNNCINSVGNFDIPLSKQTLNLVNISYLPGTTFEGQWESLYFGNNIKERLYSYATISLKIARFKQTGDSNQEDITTLITNNKLLLVHGPPGTGKTTLCKALCQKLSVRREFSDGSDTIDTNYKGIIIELSCARIFSKWFGESSKNISIVFKDIEELLKVNEGRGIFICLLIDEVEAIASSRTNLSSRNESTDGIRVVNTLLTQLDRLKKYHNFLALATSNLLDSLDDAFVDRADGVFYVGNPTAEGILHILKVCIEEMITSGIILFHARSTGVKFFNKYQDILRKIAIKCSTVDISGRTIRKLPLMCLSEYFRTFPVDDDEFVLALAMSARKLSAARK
